The experiment is described as follows: qHTS Assay for Lipid Storage Modulators in Drosophila S3 Cells.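 As to cell number change: cells counted by Cell Tracker Red CMTPX staining in the red channel.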 The note with it: BODIPY lipid droplet fluorescence, 18-24 h; for cell number change: measured here: cell count max response, cells fed with added oleic acid. In a few lines: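 Laser-scanning cytometry quantifies lipid droplet accumulation (500–530 nm total intensity; droplet/cell object ratio) in oleic acid-fed (400 uM added) Drosophila S3 cells treated with a concentration series. 20 uM Triacsin C defined 100% inhibition.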
In general terms: qHTS replaces the single test concentration by a dilution series.

The mark [1] stands for this setting: measured here: cell number channel AC50, cells fed with added oleic acid.
Where [2] appears, read: measured here: lipid fluorescence (Fed channel) AC50, cells fed with added oleic acid.

Experimental findings from PubChem BioAssay AID2685 (National Center for Advancing Translational Sciences (NCATS), 2010) are described below.

The term AC50 denotes the concentration at which the activity in the assay is half-maximal.

Structures are written as SMILES. The list shows a part of the results. The main result of the screen is listed elsewhere. These columns were measured beside it and carry no call. Compounds called inactive in the main read-out are mostly missing here. Potencies come from curve fits of mixed quality, noted in brackets.

Regarding `O=C(O)C1CCCCN1C(=O)c1ccc(S(=O)(=O)N2CCCC2)cc1` (stereo not given), the cell number change is -36.1%. For the same molecule, the concentration at half-maximal activity (AC50) under setting [1] is 2060 nM [falling, full curve].
As to `Clc1ccc(OCCCN2CCCCC2)c(Br)c1`, the cell number change is -1.23%. Moreover, the concentration at half-maximal activity (AC50) under setting [2] was 6510 nM [falling, full curve].
As for `O=C(Oc1cccc(-n2cnnn2)c1)c1ccccc1`, the cell number change was -35.6%. Besides, the AC50 under setting [1] was 23100 nM [falling, partial curve, poor fit].
Regarding `COc1ccc(Oc2ccc(C(F)(F)F)cc2NC(=O)c2ccc(C)cc2)cc1`, the cell number change is -4.89%. Under setting [2], the AC50 was 5.17 nM [rising, full curve, poor fit].
On to `Cc1cc(=O)c2ccccc2n1Cc1ccccc1`, for which the cell number change came out at 2.55%. Under setting [2], the AC50 is 4610 nM [rising, single point].
Regarding `COc1cccc(C(=O)OCC(=O)Nc2ccc(N3CCOCC3)cc2)c1`, the cell number change is -26.4%. The half-maximal activity concentration (AC50) under setting [2] is 130 nM [falling, partial curve, poor fit].
Take `Cn1nc(C(F)(F)F)c(C#N)c1N1CCN(c2ccccc2F)CC1`: the cell number change was -2.68%. Besides, the AC50 under setting [2] is 14600 nM [rising, partial curve].
On to `C#CCOC(=O)c1ccccc1C(=O)N(CC)CC`, for which the cell number change was -21.4%. For the same molecule, the AC50 under setting [2] was 4610 nM [falling, full curve, poor fit].
As to `COC(=O)Cn1cnc2c(cnn2-c2ccc(C)cc2)c1=O`, the cell number change turned out to be 14.1%. For the same molecule, the AC50 under setting [2] is 259 nM [rising, full curve, poor fit].
In the case of `CC(=O)NCC1CCN(C(=O)C2CCC(=O)N(CCc3cccc(F)c3)C2)CC1` (stereo not given), the cell number change came out at 9.04%. For the same molecule, the AC50 under setting [2] is 4.11 nM [rising, full curve, poor fit].
For the molecule `CC1CCCCN1C(=O)Cn1cc(/C=C2/C(=O)Nc3ccccc32)c2ccccc21` (stereo not given), the cell number change is -33.9%. Under setting [1], the AC50 was 29100 nM [falling, single point]. Moreover, the AC50 under setting [2] is 29100 nM [falling, single point].
For the molecule `CN(C)C1=NCCN1CCCC1CCCC1`, the cell number change was found to be 23.4%. Further, the AC50 under setting [2] is 6510 nM [rising, single point].
Consider `COc1ccccc1N1CCN(C(=O)C(F)F)CC1`, for which the cell number change amounted to 17%. Moreover, the AC50 under setting [2] was 820 nM [rising, single point].
Regarding `COc1ccc(S(=O)(=O)N2CCOCC2)cc1NC(=O)CSc1cc(C)ccc1C`, the cell number change was -11.3%. Under setting [1], the AC50 is 82 nM [falling, full curve, poor fit]. The half-maximal activity concentration (AC50) under setting [2] was 146 nM [falling, full curve, poor fit].
Consider `COc1ccc(N2CC(C(=O)Nc3nc4ccc(OC)cc4s3)CC2=O)cc1` (stereo not given), for which the cell number change was -33.3%.
`C/C(=C\c1ccccc1)CN1CCN(c2ccccc2)CC1`: the cell number change is -27.9%. Also, the AC50 under setting [2] is 32600 nM [falling, single point].
Take `CCCOC(=O)c1ccc(NC(=O)CSC2=Nc3ccccc3C3CC=NN23)cc1` (stereo not given): the concentration at half-maximal activity (AC50) is 73.1 nM [rising, full curve, poor fit] under setting [1] and 103 nM [rising, full curve, poor fit] under setting [2].
With `Cc1ccccc1CS(=O)(=O)Cc1ccc(C(=O)NC2CCCCC2)o1`, the cell number change stood at 7.91%. Under setting [1], the AC50 was 116 nM [rising, partial curve, poor fit].
Consider `CCn1c(C)nnc1SCC(=O)Nc1nccs1`, for which the cell number change was -13.2%. In addition, the concentration at half-maximal activity (AC50) under setting [2] was 631 nM [rising, full curve, poor fit].
For `COc1ccc(OCCCN2CCc3ccccc3C2)cc1`, the cell number change amounted to 13.2%. Further, the AC50 under setting [2] was 6510 nM [rising, partial curve].
`CCCCc1nc(NCc2ccccc2)c(C#N)c2c1COC(C)(C)C2`: the cell number change was found to be 5.79%. The AC50 under setting [2] was 146 nM [falling, full curve, poor fit].
`CCOCCCNC(=O)C1CCCN1C(=O)NC1CCCCC1` (stereo not given): under setting [2], the concentration at half-maximal activity (AC50) is 29100 nM [falling, single point].
Take `C=C(C)C1CC=C(C)/C(=N\NC(=O)CCc2ccccc2)C1` (stereo not given): the AC50 under setting [1] was 920 nM [rising, single point] and the AC50 under setting [2] is 6510 nM [rising, partial curve].
For `O=C(Nc1ccccc1C(=O)N1CCOCC1)c1noc2c1CCCC2`, the cell number change came to 0.729%.
In the case of `CCOC(=O)c1ccc(N2C(=O)C3ON(c4ccccc4)C(c4ccco4)C3C2=O)cc1` (stereo not given), the cell number change came to 40.6%. The AC50 under setting [1] was 6510 nM [rising, single point]. The concentration at half-maximal activity (AC50) under setting [2] is 11.6 nM [rising, full curve].
On to `CC(=O)c1ccc(S(=O)(=O)N2CCCCC2C(=O)O)cc1` (stereo not given), for which the cell number change was determined as 4.88%. Also, the AC50 under setting [2] is 820 nM [falling, full curve].
`CC(=O)C[C@H](O)CC(=O)[C@H]1OC(=O)CCCCCCCc2ccccc21`: the cell number change was -12.2%. Moreover, the half-maximal activity concentration (AC50) under setting [2] is 20600 nM [rising, single point].
For the molecule `Cc1ccc(N=Nc2c(O)n(CN3CCOCC3)c3ccccc23)cc1`, the cell number change amounted to 49.1%. The AC50 under setting [1] is 29100 nM [rising, single point]. Moreover, the AC50 under setting [2] was 23100 nM [falling, single point].
For `CNc1nc2c(c(=O)n(C)c(=O)n2C)n1CCCc1ccccc1`, the cell number change is -40.2%. For the same molecule, the concentration at half-maximal activity (AC50) under setting [1] was 11600 nM [falling, partial curve]. Also, the concentration at half-maximal activity (AC50) under setting [2] is 146 nM [falling, full curve, poor fit].
`O=C(N/N=C/c1ccc(Cl)c([N+](=O)[O-])c1)c1cc(-c2ccc3c4c(cccc24)CC3)n[nH]1`: the cell number change is -5.17%. Further, the concentration at half-maximal activity (AC50) under setting [2] is 32600 nM [falling, single point].
Turning to `O=C(NCCc1ccccc1Cl)C1CCC(=O)N(Cc2ccc(Cl)cc2)C1` (stereo not given), the cell number change was 4.88%. Under setting [2], the half-maximal activity concentration (AC50) is 5170 nM [falling, partial curve, poor fit].
As for `CC1SCC(=O)N(CC(=O)Nc2ccc3c(c2)OCCO3)C1=O` (stereo not given), the cell number change was -5.6%.
Take `CNc1nnc(CSc2nc(C)cc(C)n2)s1`: the cell number change was 9.17%. Besides, the concentration at half-maximal activity (AC50) under setting [2] was 10300 nM [rising, single point].
Regarding `CC(=O)OCC(OC(C)=O)C(OC(C)=O)C(OC(C)=O)C(=O)Nc1ccc(C)cc1` (stereo not given), the AC50 under setting [1] is 2910 nM [falling, single point].
Consider `COc1ccc(CCNC(=O)Cn2cccc2C(=O)c2ccccc2)cc1OC`, for which, under setting [2], the concentration at half-maximal activity (AC50) was 206 nM [falling, full curve].
In the case of `CCCn1c(N)c(C(=O)CSc2ncc(C(F)(F)F)cc2Cl)c(=O)[nH]c1=O`, the cell number change is -6.83%. For the same molecule, the half-maximal activity concentration (AC50) under setting [1] is 1640 nM [falling, partial curve, poor fit]. In addition, the half-maximal activity concentration (AC50) under setting [2] was 2910 nM [falling, partial curve].
`Cc1cc(C)cc(NC(=O)CCN2C(=O)c3ccccc3S2(=O)=O)c1`: the cell number change was found to be 15.9%.
With `COc1ccc(CN2CCN(Cc3c[nH]c4ccccc34)CC2)cc1`, the cell number change amounted to 12.5%.
Consider `COc1cccc(NC(=O)N2CCN(c3nnnn3-c3ccccc3)CC2)c1`, for which the cell number change came to 10.4%. Also, the AC50 under setting [2] was 206 nM [falling, full curve, poor fit].
Regarding `Cc1nc(C(=O)NC2CCCCC2)sc1C1(C)CC(c2cccc([N+](=O)[O-])c2)=NO1` (stereo not given), the AC50 under setting [2] was 29100 nM [rising, single point].
Take `O=C(CN1c2cccc3cccc(c23)S1(=O)=O)Nc1ccccc1`: the cell number change came to 16.8%.
Take `Cc1ccc(OCc2ccc(C(=O)Nc3nccs3)o2)cc1`: the cell number change stood at 56.2%. The concentration at half-maximal activity (AC50) under setting [1] was 11600 nM [rising, partial curve, poor fit].
In the case of `O=C(c1csc2c1CCCC2)N1CCN(c2cccc(C(F)(F)F)c2)CC1`, the cell number change was 6.29%.
As to `CCCOC(=O)c1[nH]c2c(c1C)C(=O)CC(c1ccc(OC)c(OC)c1)C2` (stereo not given), the cell number change is 7.26%. In addition, under setting [2], the AC50 was 1460 nM [rising, partial curve].
As for `C/C(=N\NC(=O)C1CCCC1)c1ccc(C(C)C)cc1`, the cell number change is -20.1%.
For the molecule `O=C1C2CCCN2C(c2cccc(F)c2)N1c1cccc(Cl)c1` (stereo not given), the cell number change is -3.04%. Moreover, the AC50 under setting [2] is 116 nM [falling, full curve, poor fit].
In the case of `CCc1cc2c(CN3CCN(CC)CC3)cc(=O)oc2cc1O`, the cell number change was 9.63%. For the same molecule, the AC50 under setting [2] is 10300 nM [falling, partial curve, poor fit].
Take `Cc1ccc(C(=O)c2sc3nsc(C)c3c2N)cc1`: the AC50 under setting [2] is 6510 nM [rising, single point].
`CCOC(=O)CSC1=NN2CCS(=O)(=O)N=C2S1`: the cell number change was -17.8%. Moreover, the AC50 under setting [1] was 1160 nM [falling, single point]. Besides, the AC50 under setting [2] is 1460 nM [falling, partial curve, poor fit].
In the case of `N/C(=N\OS(=O)(=O)c1cccc([N+](=O)[O-])c1)c1ccncc1`, the cell number change is -1.5%. Also, the half-maximal activity concentration (AC50) under setting [1] is 1300 nM [falling, full curve, poor fit]. Further, under setting [2], the AC50 was 164 nM [falling, full curve].
Take `Cc1nc2sc3c(c2c(=O)o1)CC(C)(C)OC3`: the cell number change is -11.4%. Under setting [1], the concentration at half-maximal activity (AC50) was 2060 nM [falling, partial curve].
On to `COc1ccc(C(=S)NC2CCCCC2)cc1`, for which the cell number change was -17%. Besides, under setting [2], the concentration at half-maximal activity (AC50) is 82 nM [falling, full curve, poor fit].
On to `O=C(CN1C(=O)C2C3C=CC(C4CC34)C2C1=O)NCc1ccco1` (stereo not given), for which the cell number change was determined as 2.23%.
For `N=C1/C(=C/c2ccc(OCc3ccccc3F)cc2)C(=O)N=C2SC(CC(=O)N3CCOCC3)=NN12`, the cell number change worked out at 22.2%. Further, the AC50 under setting [2] is 920 nM [rising, full curve].
Regarding `Cc1ccc(C(=O)Nc2ccccc2C(=O)N2CC3(C)CC2CC(C)(C)C3)cc1` (stereo not given), the cell number change is -11.6%. Besides, the AC50 under setting [2] was 8200 nM [falling, partial curve, poor fit].
Regarding `CCOC(=S)SCC(=O)Nc1nccs1`, the cell number change stood at 24.6%.
In the case of `Cc1ccc(S(=O)(=O)/N=C/c2ccc(N(C)C)cc2)cc1`, the cell number change is -10.4%. Further, under setting [1], the concentration at half-maximal activity (AC50) is 731 nM [rising, single point].
For `COc1ccc(NC(=O)/C(Cl)=C(/Cl)S(=O)Cc2ccc(Cl)cc2)cn1` (stereo not given), the cell number change is -68.7%. In addition, the AC50 under setting [1] was 2910 nM [falling, full curve, poor fit]. Besides, the concentration at half-maximal activity (AC50) under setting [2] was 3260 nM [falling, partial curve, poor fit].
Regarding `COc1cc2c(-c3ccc4cc[nH]c4c3)c(-c3ccsc3)oc(=O)c2cc1OC`, the cell number change is -20.6%. Moreover, under setting [2], the concentration at half-maximal activity (AC50) was 3660 nM [rising, single point].
In the case of `O=C(CSc1nc2c(c(=O)[nH]1)CCC2)Nc1ccccc1Cl`, the cell number change stood at 20.9%. The AC50 under setting [2] is 6510 nM [rising, single point].
As to `O=C1C=C(c2ccccc2)C[C@@H](c2ccc3c(c2)OCO3)C1`, the cell number change was -8.78%.
